In PubChem BioAssay AID1347076 (National Center for Advancing Translational Sciences (NCATS), 2019):
Values joined by “and” are separate entries in the source; they are usually repeats but may differ in a detail not shown here. Identical values can stand only once. About 13,000 (3.2%) of roughly 400,000 compounds were called active. Inconclusive results, whose numbers are uncertain, are shown with a selection of clear calls. Calls come from the whole dose curve; as a rule, active = well fitted cell-killing curve with a large enough effect; inconclusive = small, poorly fitted or top-dose-only effect, or effect the other way; inactive = flat fitted curve, though single readings scatter. Where the call is inconclusive, the potency comes from a doubtful curve fit.

Assay: qHTS assay for MDR1-selective chemotherapeutics: Primary screen using the drug-selected MDR subline cells KB-V1; note: nearly all actives have a fitted effect of over 60% in size
Details: KB-V1 MDR cells viability, CellTiter-Glo, 72 h; activity change, negative = cytotoxicity: at 46.1 µM (top of the series)
Method in brief: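 In this primary screen, KB-V1 cells overexpressing P-gp are incubated with library compounds (lowest to highest concentration) for 72 h at 37 degrees C before a luminescent ATP viability read.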
% is set by controls: 0 for no effect and ±100 for the full control effect; potency is the fitted concentration of half-maximal effect.

| Compound | Potency | activity change, negative = cytotoxicity |
| --- | --- | --- |
| O=S(=O)(c1ccc(OCC(O)CN2CCN(c3ccccc3)CC2)cc1)N1CCOCC1 (configuration not stated) | inconclusive: 14.6 µM [cytotoxic, partial curve] |  |
| CCCCOc1ccc(C(=O)NCC(=O)NNC(=O)c2ccco2)cc1 | inconclusive: 16.4 µM [rising, partial curve, poor fit] |  |
| COCCNC(=S)N1CCN(C(=O)C(=O)Nc2ccc(C(=O)OC)cc2)CC1 | inactive |  |
| CN1C(=O)c2ccccc2Sc2ccc(NC(=O)N3CCN(c4ccc(F)cc4)CC3)cc21 | inconclusive: 18.4 µM [cytotoxic, single point] |  |
| O=C1NC(Cc2ccccc2)c2nc3cc(F)c(F)cc3c(=O)n2-c2cc3ccccc3cc21 (configuration not stated) | inconclusive: 18.4 µM [cytotoxic, single point] |  |
| Cc1cc(CN(C)C(=O)c2ccc3nc(Cc4ccccc4F)oc3c2)n[nH]1 | inconclusive: 29.1 µM [cytotoxic, single point] |  |
| O=C(/C=C/Nc1ccccc1)c1ccccc1 | inactive |  |
| CCOC(=O)c1c(CSc2ccccc2)n(C)c2cc(Br)c(O)c(CN(C)C)c12 | inconclusive: 29.1 µM [cytotoxic, single point] |  |
| COc1ccc(S(=O)(=O)Nc2cccc(-c3ccc(N4CCCCC4)nn3)c2)cc1F | inactive |  |
| CCOC(=O)COc1ccc2c3c(c(=O)oc2c1C)CCC3 | inactive |  |
| C=CCN(C(=O)CCc1ccccc1OC)c1nc(-c2ccc(S(C)(=O)=O)cc2)cs1 | inactive |  |
| CC(C)(C)C(=O)NC(=S)NNC(=O)c1ccc(Cl)cc1Cl | inconclusive: 4.11 µM [cytotoxic, full curve] |  |
| O=C(Nc1cccc(Cl)c1)c1nc[nH]c1C(=O)NCCN(CCNC(=O)c1[nH]cnc1C(=O)Nc1cccc(Cl)c1)CCNC(=O)c1[nH]cnc1C(=O)Nc1cccc(Cl)c1 | inconclusive: 25.9 µM [rising, single point] |  |
| O=C(COC(=O)COc1cccc(C(F)(F)F)c1)NC1CCCC1 | inactive |  |
| Cn1cccc1/C=N/n1c(-c2ccc(Cl)cc2)n[nH]c1=S | inconclusive: 11.6 µM [rising, partial curve, poor fit] |  |
| COc1ccc(-c2n[nH]c(C)c2-c2cnn(-c3ccccc3)c2)c(O)c1C | inconclusive: 29.1 µM [cytotoxic, partial curve, poor fit] |  |
| CC1CCN(S(=O)(=O)c2cc(C(=O)N3CCN(c4ncccn4)CC3)ccc2Br)CC1 | inactive |  |
| Oc1ccc(NCc2ccccc2OCc2ccccc2)cc1 | inactive |  |
| CCOc1cc(C(=O)N/N=C/c2ccsc2)cc(OCC)c1OCC | inconclusive: 29.1 µM [cytotoxic, single point] |  |
| FC(F)(F)c1nc(N2CCN(c3ccccc3)CC2)nc2c1CCCCC2 | inactive |  |
| Cc1cc(C)cc(C(=O)NC(=S)Nc2cccnc2)c1 | inconclusive: 14.6 µM [cytotoxic, partial curve, poor fit] |  |
| Cc1ccc(Nc2cc(C)nc(NCc3ccccc3)n2)cc1 | active: 11.6 µM |  |
| COc1cc(CN(C(=S)NCC(=O)NC2CCCC2)C2CCCC2)cc(OC)c1OC | active: 13 µM |  |
| Cc1ccc(Cl)cc1-n1c(SCC(=O)NCc2ccccc2)nc2n[nH]c(C)c2c1=N | inconclusive: 29.1 µM [cytotoxic, single point] |  |

| Compound | Potency | activity change, negative = cytotoxicity |
| --- | --- | --- |
| CSc1ccc(CCNC(=O)CN2C(=O)COc3ccc(S(=O)(=O)N4CCCCCC4)cc32)cc1 | inconclusive: 8.2 µM [cytotoxic, partial curve] |  |
| CCn1cc(C(=O)OCC(=O)Nc2cccc(S(=O)(=O)N3CCOCC3)c2)c(=O)c2ccc(C)nc21 | active: 8.2 µM |  |
| CSCCC(NC(=O)COc1ccccc1)C(=O)N1CCCCCC1 (configuration not stated) | inconclusive: 0.58 µM [cytotoxic, full curve, poor fit] |  |
| FC(F)(F)c1cccc(-c2nnc(-c3ccccc3)c(N3CCOCC3)n2)c1 | inactive |  |
| CC(O)(c1cccc(F)c1)c1nc(-c2csc3ccccc23)cs1 (configuration not stated) | inactive |  |
| COc1ccc(C(=O)N2c3ccccc3C=CC2C#N)cc1 (configuration not stated) | inactive |  |
| COc1ccc2c3c(cccc13)C(=O)CC2 | inconclusive: 25.9 µM [cytotoxic, partial curve, poor fit] |  |
| COc1ccc(C2OC(=O)CC2C(=O)N2CCN(c3cc(Cl)ccc3C)CC2)cc1OC (configuration not stated) | inactive |  |
| CCN1CCc2c(OCC(=O)N3N=C(c4cccs4)CC3c3ccc(F)cc3)cccc2C1=O (configuration not stated) | inconclusive: 18.4 µM [cytotoxic, single point] |  |
| Cc1cnc(NC(=O)CSc2ncc(-c3ccccc3)n2Cc2ccco2)s1 | active: 20.6 µM |  |
| CCOC(=O)c1c(C)[nH]c(C)c1S(=O)(=O)N1CCCC(C(=O)N2CCN(c3cccc(Cl)c3)CC2)C1 (configuration not stated) | inactive |  |
| COC(C[C@H]1O[C@H]1[C@H](O)COCc1ccccc1)OC | inactive |  |
| CCCCN(C(=O)Cc1cccs1)c1nnc(-c2cccnc2)s1 |  | inconclusive: -31.1% [cytotoxic] |
| Cc1cc([N+](=O)[O-])ccc1NC(=O)CSc1nncn1-c1cccnc1 | inconclusive: 14.6 µM [cytotoxic, partial curve, poor fit] |  |
| Cn1c(O)c(/C=N/NC(=O)c2cc3ccccc3cc2O)c2ccccc21 | inactive |  |
| COc1ccc(NC(=O)c2ccc(Cc3ccc(C)cc3)o2)cc1 | inconclusive: 16.4 µM [cytotoxic, partial curve] |  |
| COc1ccc(OCC(=O)N/N=C\c2ccco2)cc1 | inactive |  |
| CCc1c(C(=O)Nc2cc(C)cc(C)c2)[nH]c(C)c1C(C)=O | inconclusive: 16.4 µM [cytotoxic, single point] |  |
| CCC(C)[C@H]1CNC(=S)N1CCc1cccc2ccccc12 (some centres not stated) | inconclusive: 32.6 µM [cytotoxic, partial curve, poor fit] |  |
| Cc1ccc2nc(-c3ccc(C)s3)c(Nc3ccc4c(c3)OCCO4)n2c1 | inactive |  |
| Cc1ccc(/C=N/NC(=O)Cc2cccs2)o1 | inconclusive: 7.31 µM [rising, partial curve] |  |
| COc1ccc(CCNC(=O)CN(c2ccccc2)S(=O)(=O)N(C)C)cc1 | inconclusive: 16.4 µM [cytotoxic, single point] |  |
| O=c1c(Cc2ccc(Cl)cc2)c(O)ccn1Cc1ccncc1 | inconclusive: 20.6 µM [rising, single point] |  |
| Cc1cccc(C)c1NC(=O)CCCSc1nnc(-c2ccc(Cl)cc2)n1-c1ccccc1 | active: 2.91 µM |  |

| Compound | Potency | activity change, negative = cytotoxicity |
| --- | --- | --- |
| c1ccc(CCNc2ccccn2)nc1 | inconclusive: 18.4 µM [cytotoxic, single point] |  |
| CCN(CC)CCNC(=O)c1cc2c(-c3cccc(OC)c3)nn(C)c2s1 | inconclusive: 11.6 µM [cytotoxic, partial curve] |  |
| CSCCC1NC(=O)N(CC(=O)Nc2ccc(Br)cc2Br)C1=O (configuration not stated) | inconclusive: 16.4 µM [cytotoxic, partial curve] |  |
| CCOc1ccc(-c2cc(C(=O)N3CCN(c4ccccn4)CC3)c3ccccc3n2)cc1 | inconclusive: 23.1 µM [cytotoxic, single point] and inconclusive: 2.31 µM [cytotoxic, full curve] |  |
| COc1ccccc1CC(=O)Nc1ccc2c(c1)OC1(CCCC1)O2 | inactive |  |
| CC1CCCCN1C(=O)NC1CC(=O)N(c2ccc3c(c2)OCCO3)C1 (configuration not stated) | inactive |  |
| COc1cc(/C=N/NC(=O)Cc2csc(N3CCOCC3)n2)cc(OC)c1O | inactive |  |
| CN(C)/C=C/C(=O)c1cccc(Cl)c1 | inactive |  |
| Cc1ccc2[nH]cc(C(c3ccccc3)c3ccc(Cl)s3)c2c1 (configuration not stated) | inconclusive: 29.1 µM [cytotoxic, single point] |  |
| O=C(CCSc1ccccc1)N1CCN(c2ccccc2F)CC1 | inactive |  |
| COc1cc(/C=C/C(=O)O)ccc1OCc1ccc([N+](=O)[O-])cc1 | inconclusive: 20.6 µM [rising, partial curve, poor fit] |  |
| CC(C)CCNC(=O)Cn1c2c(c(-c3ccccc3Cl)cc1=O)CCC2 | inactive |  |
| COC(=O)CN1C(=O)N/C(=C/c2cc(OC)c(OC)cc2C)C1=O | inconclusive: 18.4 µM [rising, single point] |  |
| CC(O)(CS(=O)(=O)Cc1ccccc1)C(=O)Nc1ccc(C(F)(F)F)cc1 (configuration not stated) | active: 20.6 µM |  |
| COc1ccc(-c2sc3ccc(OC)cc3c2C#Cc2cncn2C)cc1 | inconclusive: 16.4 µM [cytotoxic, single point] |  |
| CCOC(=O)C1=C(SCC)c2cc3c(n2C1=O)CCCC3 | inactive |  |
| O=C(NNC(=S)Nc1cccc(Cl)c1)c1ccccc1OC(F)F | inconclusive: 29.1 µM [cytotoxic, single point] |  |
| COc1ccc([C@H]2C=C3CN(C(=O)OC(C)(C)C)S(=O)(=O)[C@H]3C[C@H]2OC(=O)c2ccc(C(F)(F)F)cc2)cc1 | inconclusive: 20.6 µM [rising, single point] |  |
| COc1ccccc1CCNC(=O)C(=O)NCC1OCCN1S(=O)(=O)c1ccc(OC)c(OC)c1 (configuration not stated) | inconclusive: 16.4 µM [cytotoxic, single point] |  |
| COc1cc(NS(=O)(=O)c2ccc(Br)cc2)c(OC)cc1NC(=O)c1ccco1 | active: 8.2 µM |  |
| O=C(Nc1cc(C(F)(F)F)ccc1N1CCOCC1)C1Cc2ccccc2CN1C(=O)c1ccco1 (configuration not stated) | inconclusive: 9.2 µM [cytotoxic, partial curve] |  |
| N#Cc1ccc(OCC(=O)OCCCOC(=O)COc2ccc(C#N)cc2)cc1 | inactive |  |
| CCc1ccccc1NC(=O)NNS(=O)(=O)c1cc(C)ccc1C |  | inconclusive: 63.2% |
| O=C(Nc1nnc([C@H]2C[C@H](O)[C@@H](CO)O2)s1)Nc1ccc(F)cc1F | inactive |  |
